Laboratory results from patent US6753345B2, “7-hexanolytaxol and methods for preparing the same” (Hauser, Inc., priority 1998, dated 2004).

System: cell line panel (60 lines, nine disease-related subpanels)
Test: SRB cytotoxicity screening assay, whole cell line panel (mean values)
Settings: over the cell line panel

Row | Structure (SMILES) | Log10 TGI, Range | Log10 TGI, Delta
1 | CC(=O)O[C@H]1C(=O)[C@@]2(C)[C@H]([C@H](OC(=O)c3ccccc3)[C@]3(O)C[C@H](OC(=O)[C@H](O)[C@@H](NC(=O)c4ccccc4)c4ccccc4)C(C)=C1C3(C)C)[C@]1(OC(C)=O)CO[C@@H]1C[C@@H]2O [Paclitaxel, paclitaxel, reference compound] | 7.20 | 
2 | CCCCCC(=O)O[C@H]1C[C@H]2OC[C@@]2(OC(C)=O)[C@H]2[C@H](OC(=O)c3ccccc3)[C@]3(O)C[C@H](OC(=O)[C@H](O)[C@@H](NC(=O)c4ccccc4)c4ccccc4)C(C)=C([C@@H](OC(C)=O)C(=O)[C@]12C)C3(C)C [7-hexanoyltaxol] | 4.00 | 2.41
